Reference: PubChem BioAssay AID504774 (Drosophila RNAi Screening Center, 2011)
Aim: 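Knock-downs that shift viability of MMS-exposed cells relative to untreated ones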 (primary screen). Cells: Drosophila Kc167 cells. Reagents: long dsRNA against Drosophila genes, about 0.25 µg dsRNA per well. Duration: about 6 days: 3 days knock-down, then 3 days with or without MMS. Challenge: methyl methanesulphonate 0.004% (w/v) for 3 days after knock-down. Read-out: 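Viability in wells given MMS, read as ATP luminescence, normalised by quantiles plate by plate and averaged across replicates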. Scale: mean viability with MMS: higher = more surviving cells after MMS.
In all, the deposit lists about 23,000 reagents; this is a random part of those that have a named target and a result. 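Values are quantile-normalised luminescence on an arbitrary scale; higher means more cells surviving MMS.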 The numbers tell different reagents against one gene apart. A plus sign joins genes that one reagent is predicted to hit. Further read-outs or replicates are left out here. Reagent sequences are not shown.

mean viability with MMS, by gene knocked down and reagent
CG6178: #1 3.52e6
se (sepia): #1 3.65e6
Prim2 (DNA primase subunit 2): #1 3.30e6
AIMP2 (aaRS-interacting multifunctional protein 2): #1 3.62e6
CG13623: #1 3.36e6
CG17593: #1 3.74e6
CG30046: #1 3.48e6
DCTN3-p24 (Dynactin 3, p24 subunit): #1 3.44e6
CG5937: #1 3.51e6
CG4009: #1 3.71e6
CG12078: #1 3.58e6
CG10508: #1 3.43e6; #2 3.54e6
nxf2 (nuclear RNA export factor 2): #1 3.53e6
sp3 (spermathreecae): #1 3.66e6
CG14866: #1 3.73e6

Ordered by “mean viability with MMS” (highest first): 8 of the entries above.
gene knocked down	reagent no.	mean viability with MMS
CG17593	1	3.74e6
CG4009	1	3.71e6
AIMP2 (aaRS-interacting multifunctional protein 2)	1	3.62e6
CG12078	1	3.58e6
CG5937	1	3.51e6
CG30046	1	3.48e6
DCTN3-p24 (Dynactin 3, p24 subunit)	1	3.44e6
CG13623	1	3.36e6

The list goes on:
mean viability with MMS, by gene knocked down and reagent
CG5326: #1 3.65e6; #2 3.74e6
Sid (Stress induced DNase): #1 3.69e6
ec (echinus): #1 3.40e6; #2 3.42e6; #3 3.95e6
CG8379: #1 3.33e6
CRMP (Collapsin Response Mediator Protein): #1 3.45e6; #2 3.79e6
ATPsynG (ATP synthase, subunit G): #1 3.59e6
Rrp42: #1 3.60e6
CG15213: #1 3.66e6
Cpr47Ed (Cuticular protein 47Ed): #1 3.57e6
Larp4B (La-related protein 4B): #1 3.19e6; #2 3.62e6
CG9119: #1 3.56e6
Uggt (UDP-glucose-glycoprotein glucosyltransferase): #1 3.53e6
CG12655: #1 3.65e6
Sr-CIV (Scavenger receptor class C, type IV): #1 3.62e6
CG7953: #1 3.49e6
Pgi (Phosphoglucose isomerase): #1 3.51e6
CG15772: #1 3.45e6
CG15537: #1 3.56e6
CG7407: #1 3.67e6
eya (eyes absent): #1 3.61e6
CG30088: #1 3.38e6
CG34235 + CG30058 + CG34312: #1 3.61e6
CG13251: #1 3.52e6
CG15452: #1 3.53e6
side-VI (sidestep VI): #1 3.41e6; #2 3.42e6; #3 3.53e6; #4 3.35e6; #5 3.64e6
